PubChem BioAssay AID504784 – Drosophila RNAi Screening Center, 2011
In all, the deposit lists about 17,000 reagents; this is an unselected part of those that have a named target and a result. 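Each column is one replicate's B-score; the combined score over replicates was not deposited, so single values may mislead.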 A plus sign joins genes that one reagent is predicted to hit.

Test: 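Search for regulators of lipid droplet storage in oleate-fed fly cells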 (primary screen)
System: Drosophila Kc167 embryonic cells
Reagent: long dsRNA against Drosophila genes, about 250 ng dsRNA per well
Duration: 4 days
Conditions: cells fed 400 µM oleic acid bound to BSA
Measured: 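Cells imaged and segmented; ratio of lipid droplet area to nuclear area, log-transformed, then normalised as a B-score over the screen; higher means more stored lipid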
Scale: droplet/nuclear area B-score: higher = more stored lipid (overstorage)

target gene | DRSC id | droplet/nuclear area B-score, replicate 1 | droplet/nuclear area B-score, replicate 2 | droplet/nuclear area B-score, replicate 3
wus (wurst) | DRSC20278 | -0.521 | -0.00901 | –
CG17195 | DRSC15188 | 0.418 | 0.311 | –
Idi (Isopentenyl-diphosphate delta isomerase) | DRSC15918 | -0.906 | -0.908 | –
CG34057 | DRSC08375 | 0.704 | 0.00922 | –
sdt (stardust) | DRSC17555 | -1.13 | -1.32 | –
sdt (stardust) | DRSC17556 | -0.537 | -1.95 | –
sdt (stardust) | DRSC17860 | 0.398 | 0.238 | –
sdt (stardust) | DRSC17861 | -0.396 | -0.302 | –
sdt (stardust) | DRSC18022 | 1.87 | 1.51 | –
sdt (stardust) | DRSC18025 | -0.799 | -0.438 | –
sdt (stardust) | DRSC18026 | -1.97 | – | –
sdt (stardust) | DRSC18027 | -1.59 | -1.03 | –
sdt (stardust) | DRSC18108 | 0.101 | -0.156 | –
Cap-D3 + tomb | DRSC02347 | -0.212 | -0.0216 | –
CG2839 | DRSC00544 | -0.686 | 0.456 | –
CG9777 | DRSC20208 | -0.651 | 1.15 | –
alpha4GT1 (alpha1,4-galactosyltransferase 1) | DRSC00488 | 0.273 | -0.539 | –
GCS1 (Glucosidase 1) | DRSC19744 | -0.171 | 0.243 | -0.157
CG33144 | DRSC06132 | 0.0318 | 1.66 | –
CG33144 | DRSC07024 | -0.89 | 0.988 | –
CG7884 | DRSC20065 | 0.0204 | 0.13 | –
y (yellow) | DRSC18853 | 0.0851 | 1.62 | –
borr (borealin-related) | DRSC02749 | -0.502 | -1.05 | –
CG31528 | DRSC12003 | 0.929 | -0.181 | –
LanB1 | DRSC03360 | 1.46 | -0.47 | –
Nup93-2 (Nucleoporin 93kD-2) | DRSC16221 | 0.694 | -0.442 | –
Vha100-4 (Vacuolar H[+] ATPase 100kD subunit 4) | DRSC16282 | 0.246 | 0.528 | –
CG14607 | DRSC12551 | 1.35 | 1.4 | –
CG11975 | DRSC14452 | -0.544 | 0.894 | –
wntD (wnt inhibitor of Dorsal) | DRSC16423 | -0.756 | -1.91 | –
CG5391 | DRSC15790 | -0.136 | -0.118 | –
Alg12 (Alg12 alpha-1,6-mannosyltransferase) | DRSC16416 | -0.179 | -1.88 | –
sinu (sinuous) | DRSC09752 | -0.505 | 0.0753 | –
Ns2 (Nucleostemin 2) | DRSC06993 | 1.24 | 3.23 | –
mus101 (mutagen-sensitive 101) | DRSC19388 | -1.75 | -1.76 | -0.839
CG15330 | DRSC18014 | -0.0226 | -0.654 | –
trpl (transient receptor potential-like) | DRSC06728 | 2.25 | -0.12 | –
trpl (transient receptor potential-like) | DRSC06729 | 3.92 | 2.98 | -0.539
obst-J (obstructor-J) | DRSC10821 | -0.415 | 0.664 | –
He + NimB5 | DRSC22876 | -0.96 | -0.475 | –
CG12644 (retired record) | DRSC17850 | 1.63 | -0.816 | 1.52
Gli (Gliotactin) | DRSC03332 | 0.1 | -0.376 | –
pns (pinstripe) | DRSC08598 | -1.86 | -0.0498 | –
Rcd1 (Reduction in Cnn dots 1) | DRSC07116 | 0.297 | 1.62 | –
CAH2 (Carbonic anhydrase 2) | DRSC10746 | -0.305 | -0.454 | –
Poxn (Pox neuro) | DRSC05589 | 0.541 | 0.097 | –
Poxn (Pox neuro) | DRSC07512 | 1.55 | 0.00163 | –
Ir60b (Ionotropic receptor 60b) | DRSC04217 | -0.172 | -0.576 | –
CG5913 | DRSC15916 | -0.0739 | 1.02 | –
Or22a (Odorant receptor 22a) | DRSC00764 | 2.55 | -2.72 | –
Ahcy (Adenosylhomocysteinase) | DRSC19329 | 2.43 | -0.609 | 0.252
CG9776 | DRSC12127 | 0.00265 | -0.41 | -0.872
form3 (formin 3) | DRSC10195 | 0.00272 | -0.409 | –
form3 (formin 3) | DRSC10297 | 1.29 | -0.0754 | –
form3 (formin 3) | DRSC11024 | 0.746 | -0.134 | –
tank | DRSC00461 | -0.0286 | 1.53 | –
Src42A (Src oncogene at 42A) | DRSC04915 | 0.0834 | -0.515 | –
CG10098 | DRSC12509 | 1.78 | -3.2 | –
CG7745 | DRSC07037 | 0.164 | -5.44 | –
CG7745 | DRSC23103 | -2.54 | -0.384 | –
mAChR-C (muscarinic Acetylcholine Receptor, C-type) | DRSC17890 | 0.00135 | 0.233 | –
CG30467 | DRSC07097 | -1.3 | -0.256 | –
Cirl (Calcium-independent receptor for alpha-latrotoxin) | DRSC21942 | 4.91 | 2.31 | –
Cirl (Calcium-independent receptor for alpha-latrotoxin) | DRSC23235 | -1.93 | -1.05 | –
Rpn8 (Regulatory particle non-ATPase 8) | DRSC04624 | 0.905 | 1.74 | –
CG33235 | DRSC19641 | -1.46 | -1.93 | 0.0282
Or7a (Odorant receptor 7a) | DRSC18691 | 0.84 | 1.12 | –
Ndf (Nucleosome-destabilizing factor) | DRSC02775 | -0.0737 | 0.286 | –
CG2736 | DRSC04314 | -0.153 | 0.872 | –
Cyp12b2 (Cytochrome P450 12b2) | DRSC07364 | 0.917 | 0.263 | –
CG30076 | DRSC05494 | 0.0432 | -0.02 | –
CG4582 | DRSC15605 | 0.0259 | -0.726 | –
Tnpo-SR (Transportin-Serine/Arginine rich) | DRSC00546 | -2.42 | -0.151 | –
CG33483 | DRSC14019 | 2.22 | 1.01 | –
Act79B (Actin 79B) | DRSC11604 | -0.824 | -2.44 | –
CG15710 | DRSC06581 | 1.42 | -0.693 | –
Polr2A (RNA polymerase II subunit A) | DRSC20280 | 2.78 | 3.44 | 0.102
CG17217 | DRSC02592 | -1.7 | -1.67 | –
Ccz1 (Caffeine, calcium, zinc sensitivity 1) | DRSC08439 | 0.206 | -0.0199 | –
CG13716 | DRSC08325 | 0.721 | 0.553 | 0.00414
CG13716 | DRSC22815 | 3.48 | 4.09 | –
SPoCk (Secretory Pathway Calcium atpase) | DRSC11675 | 0.0282 | 1.59 | –
SPoCk (Secretory Pathway Calcium atpase) | DRSC11706 | -3.18 | -1.26 | –
SPoCk (Secretory Pathway Calcium atpase) | DRSC11844 | 1.06 | 0.377 | –
SPoCk (Secretory Pathway Calcium atpase) | DRSC11845 | 0.325 | -0.328 | –

An excerpt from above, limited to “droplet/nuclear area B-score, replicate 1”:
Nup93-2 (Nucleoporin 93kD-2) [DRSC16221]	0.694
Vha100-4 (Vacuolar H[+] ATPase 100kD subunit 4) [DRSC16282]	0.246
CG14607 [DRSC12551]	1.35
CG11975 [DRSC14452]	-0.544
wntD (wnt inhibitor of Dorsal) [DRSC16423]	-0.756
CG5391 [DRSC15790]	-0.136
